Assay results: PMC6295167
These are yes or no findings as the source states them, for the method shown. Binding seen in cells or lysates may run through a third protein. Some results given as binding are weak or reduced against the parent protein; the word gives no strength. Sequences can lack the tags named with a protein.

Protein sequences, listed by entry. Tags and fused reporters are not part of them.
UniProt P32600: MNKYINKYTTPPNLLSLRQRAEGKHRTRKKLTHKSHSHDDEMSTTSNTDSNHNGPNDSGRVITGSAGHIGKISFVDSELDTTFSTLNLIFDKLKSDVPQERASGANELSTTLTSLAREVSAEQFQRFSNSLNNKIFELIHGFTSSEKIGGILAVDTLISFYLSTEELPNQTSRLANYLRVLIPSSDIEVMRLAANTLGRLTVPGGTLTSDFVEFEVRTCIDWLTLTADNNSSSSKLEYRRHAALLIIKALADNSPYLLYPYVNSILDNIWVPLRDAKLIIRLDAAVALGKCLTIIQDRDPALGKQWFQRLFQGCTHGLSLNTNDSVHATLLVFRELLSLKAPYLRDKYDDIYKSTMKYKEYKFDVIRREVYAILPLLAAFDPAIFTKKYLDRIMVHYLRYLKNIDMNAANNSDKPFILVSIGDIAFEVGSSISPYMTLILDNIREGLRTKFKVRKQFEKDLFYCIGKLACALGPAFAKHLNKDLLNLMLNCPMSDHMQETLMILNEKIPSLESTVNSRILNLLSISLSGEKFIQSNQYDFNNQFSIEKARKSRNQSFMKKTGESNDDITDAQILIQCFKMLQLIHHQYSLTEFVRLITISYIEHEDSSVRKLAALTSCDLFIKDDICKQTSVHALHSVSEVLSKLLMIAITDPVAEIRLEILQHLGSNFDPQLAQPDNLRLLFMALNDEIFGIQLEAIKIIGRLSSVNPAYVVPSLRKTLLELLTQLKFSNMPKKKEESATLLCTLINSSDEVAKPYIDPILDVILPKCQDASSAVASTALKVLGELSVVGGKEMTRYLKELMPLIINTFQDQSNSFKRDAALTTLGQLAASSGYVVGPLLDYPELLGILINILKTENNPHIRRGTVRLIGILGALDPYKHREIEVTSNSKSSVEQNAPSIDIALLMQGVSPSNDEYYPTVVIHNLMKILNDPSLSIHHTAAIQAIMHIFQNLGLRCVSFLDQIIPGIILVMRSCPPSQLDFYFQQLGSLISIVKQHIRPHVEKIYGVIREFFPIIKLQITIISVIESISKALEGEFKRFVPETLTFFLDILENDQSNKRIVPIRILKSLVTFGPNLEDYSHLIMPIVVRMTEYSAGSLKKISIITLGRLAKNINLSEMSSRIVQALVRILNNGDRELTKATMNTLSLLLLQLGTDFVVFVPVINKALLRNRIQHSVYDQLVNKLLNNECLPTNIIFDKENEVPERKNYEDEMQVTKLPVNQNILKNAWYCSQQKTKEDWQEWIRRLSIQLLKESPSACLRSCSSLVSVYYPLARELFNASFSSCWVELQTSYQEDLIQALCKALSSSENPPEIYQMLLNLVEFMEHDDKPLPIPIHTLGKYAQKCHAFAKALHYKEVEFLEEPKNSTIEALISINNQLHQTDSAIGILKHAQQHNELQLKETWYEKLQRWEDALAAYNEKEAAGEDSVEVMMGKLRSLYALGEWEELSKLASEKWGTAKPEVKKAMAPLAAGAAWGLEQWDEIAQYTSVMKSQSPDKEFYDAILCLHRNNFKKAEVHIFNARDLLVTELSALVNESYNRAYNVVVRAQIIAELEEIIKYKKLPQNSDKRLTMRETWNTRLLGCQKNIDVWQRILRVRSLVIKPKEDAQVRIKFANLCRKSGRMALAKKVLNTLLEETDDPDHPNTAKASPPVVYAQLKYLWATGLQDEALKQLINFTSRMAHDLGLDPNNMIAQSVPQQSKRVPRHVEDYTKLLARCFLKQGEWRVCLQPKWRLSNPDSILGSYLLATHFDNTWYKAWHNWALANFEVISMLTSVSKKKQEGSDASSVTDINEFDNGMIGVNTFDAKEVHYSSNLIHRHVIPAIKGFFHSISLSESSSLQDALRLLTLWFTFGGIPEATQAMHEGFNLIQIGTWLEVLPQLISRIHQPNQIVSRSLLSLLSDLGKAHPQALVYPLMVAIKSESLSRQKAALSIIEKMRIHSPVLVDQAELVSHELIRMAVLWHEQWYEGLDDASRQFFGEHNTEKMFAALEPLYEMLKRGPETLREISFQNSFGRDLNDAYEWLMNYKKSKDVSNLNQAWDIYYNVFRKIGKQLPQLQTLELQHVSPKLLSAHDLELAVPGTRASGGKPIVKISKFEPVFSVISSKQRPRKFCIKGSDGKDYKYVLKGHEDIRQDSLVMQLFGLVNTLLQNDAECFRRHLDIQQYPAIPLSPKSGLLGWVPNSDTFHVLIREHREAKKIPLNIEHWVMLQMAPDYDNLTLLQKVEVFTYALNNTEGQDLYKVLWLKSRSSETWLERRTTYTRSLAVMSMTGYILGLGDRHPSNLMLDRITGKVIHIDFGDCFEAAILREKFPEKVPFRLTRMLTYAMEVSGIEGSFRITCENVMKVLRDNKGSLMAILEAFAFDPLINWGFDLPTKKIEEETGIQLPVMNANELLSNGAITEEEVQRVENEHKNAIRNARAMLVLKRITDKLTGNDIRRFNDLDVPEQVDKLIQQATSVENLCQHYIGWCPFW

T1: Avo3-3xFlag (S. cerevisiae) (UniProt P40061)
T1 sequence: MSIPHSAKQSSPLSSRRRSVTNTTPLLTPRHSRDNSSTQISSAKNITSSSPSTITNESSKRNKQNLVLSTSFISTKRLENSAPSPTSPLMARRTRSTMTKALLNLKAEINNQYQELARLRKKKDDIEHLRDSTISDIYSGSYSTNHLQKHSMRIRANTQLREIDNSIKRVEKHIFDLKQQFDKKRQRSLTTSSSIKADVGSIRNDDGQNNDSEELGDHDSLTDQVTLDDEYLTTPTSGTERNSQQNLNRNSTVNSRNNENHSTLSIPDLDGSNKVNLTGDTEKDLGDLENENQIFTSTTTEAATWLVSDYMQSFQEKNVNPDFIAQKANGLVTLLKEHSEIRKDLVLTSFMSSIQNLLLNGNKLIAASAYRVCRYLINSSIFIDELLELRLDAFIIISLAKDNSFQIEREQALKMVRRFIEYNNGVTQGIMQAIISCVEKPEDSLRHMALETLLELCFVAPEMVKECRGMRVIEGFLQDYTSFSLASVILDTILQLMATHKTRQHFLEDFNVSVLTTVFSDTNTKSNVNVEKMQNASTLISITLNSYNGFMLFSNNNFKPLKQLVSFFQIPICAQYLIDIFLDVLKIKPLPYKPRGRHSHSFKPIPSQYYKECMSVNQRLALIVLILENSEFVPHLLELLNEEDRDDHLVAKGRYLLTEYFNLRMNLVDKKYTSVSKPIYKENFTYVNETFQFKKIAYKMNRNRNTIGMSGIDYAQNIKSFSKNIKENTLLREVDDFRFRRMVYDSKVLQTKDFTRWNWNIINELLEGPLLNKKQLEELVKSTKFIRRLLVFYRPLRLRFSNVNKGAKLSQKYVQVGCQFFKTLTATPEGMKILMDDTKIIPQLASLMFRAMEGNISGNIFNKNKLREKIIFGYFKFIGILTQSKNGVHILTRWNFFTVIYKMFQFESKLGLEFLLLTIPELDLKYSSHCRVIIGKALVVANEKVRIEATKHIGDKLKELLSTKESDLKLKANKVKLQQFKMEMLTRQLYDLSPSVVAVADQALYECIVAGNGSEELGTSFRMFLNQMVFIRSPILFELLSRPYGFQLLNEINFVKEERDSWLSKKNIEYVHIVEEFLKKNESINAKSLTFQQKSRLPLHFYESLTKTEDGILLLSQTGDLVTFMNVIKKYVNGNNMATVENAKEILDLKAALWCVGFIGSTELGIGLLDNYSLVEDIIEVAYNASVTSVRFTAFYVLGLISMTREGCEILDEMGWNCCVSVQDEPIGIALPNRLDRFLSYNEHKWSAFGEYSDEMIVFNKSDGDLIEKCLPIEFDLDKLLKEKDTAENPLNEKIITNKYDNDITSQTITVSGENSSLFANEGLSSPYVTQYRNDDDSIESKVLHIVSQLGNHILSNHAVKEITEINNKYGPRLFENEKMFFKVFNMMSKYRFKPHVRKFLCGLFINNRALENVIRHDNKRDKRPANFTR


Target: T1, Avo3-3xFlag (S. cerevisiae)
Assay: co-IP; yeast lysates (glass beads, TNEG buffer with Tris pH 7.6, NaCl, glycerol, Tergitol, EDTA) immunoabsorbed to mouse anti-Flag affinity gel through Avo3-3xFlag, washed four times with 1x TNEG, immunoblot; Avo2 quantified as the Avo2 to Tor2 ratio, three independent experiments

binding | Molecule
binds | Tor2-mNG-3xHA (from UniProt P32600 1-2474)
binds | Avo2-mKate (protein, UniProt Q04749 1-426) MLKEPSVRLREAIIEGNLLIVKRLLRRNPDLLTNIDSENGWSSLHYASYHGRYLICVYLIQLGHDKHELIKTFKGNTCVHLALMKGHEQTLHLLLQQFPRFINHRGENGRAPIHIACMNDYYQCLSLLIGVGADLWVMDTNGDTPLHVCLEYGSISCMKMLLNEGEVSLDDNVRDKGNWKPIDVAQTFEVGNIYSKVLKEVKKKGPPLGAGKKPSSFRTPILNAKATFEDGPSPVLSMNSPYSLYSNNSPLPVLPRRISTHTTSGNGGNRRSSITNPVFNPRKPTLSTDSFSSSSNSSSRLRVNSINVKTPVGVSPKKELVSESVRHSATPTSPHNNIALINRYLLPNKSNDNVRGDSQTATINDDGGGGNGGDATIGMGLRKDPDDENENKYKIKVNNGEPRRRVSLLNIPISKLRNSNNTRAED
